Results are given in words; binding and its absence hold for the method and conditions named. Binding seen in cells or lysates may run through a third protein. Some entries that bind do so weakly or less than the wild type. Where a sequence is shown, tags or fusion partners need not be part of it.
Biological target: T1, HMGA2 tagged C-terminally with MYC and HIS (WT HMGA2-MYC-HIS) (UniProt P52927)
T1 sequence: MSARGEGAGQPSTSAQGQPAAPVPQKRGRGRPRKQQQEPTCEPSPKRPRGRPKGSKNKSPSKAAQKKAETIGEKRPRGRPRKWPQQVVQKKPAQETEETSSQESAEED
Test: co-IP; nuclear protein extracts (sonicated, soluble chromatin and proteins; 500 ug) from Hmga2-/- MEF non-transfected or stably transfected with Hmga2-myc-his; magnetic beads coated with MYC-specific antibodies, 2 h; Co-IP buffer 50 mM Tris-HCl pH 7.4, 170 mM NaCl, 0.1% Triton X-100; western blot for SUPT16, SSRP1, HIS-tag

Chains of the proteins cited; added tags and fusions are not shown. Lines headed by an entry give the natural chain unless they say otherwise; changes in a name come on top.
UniProt Q920B9: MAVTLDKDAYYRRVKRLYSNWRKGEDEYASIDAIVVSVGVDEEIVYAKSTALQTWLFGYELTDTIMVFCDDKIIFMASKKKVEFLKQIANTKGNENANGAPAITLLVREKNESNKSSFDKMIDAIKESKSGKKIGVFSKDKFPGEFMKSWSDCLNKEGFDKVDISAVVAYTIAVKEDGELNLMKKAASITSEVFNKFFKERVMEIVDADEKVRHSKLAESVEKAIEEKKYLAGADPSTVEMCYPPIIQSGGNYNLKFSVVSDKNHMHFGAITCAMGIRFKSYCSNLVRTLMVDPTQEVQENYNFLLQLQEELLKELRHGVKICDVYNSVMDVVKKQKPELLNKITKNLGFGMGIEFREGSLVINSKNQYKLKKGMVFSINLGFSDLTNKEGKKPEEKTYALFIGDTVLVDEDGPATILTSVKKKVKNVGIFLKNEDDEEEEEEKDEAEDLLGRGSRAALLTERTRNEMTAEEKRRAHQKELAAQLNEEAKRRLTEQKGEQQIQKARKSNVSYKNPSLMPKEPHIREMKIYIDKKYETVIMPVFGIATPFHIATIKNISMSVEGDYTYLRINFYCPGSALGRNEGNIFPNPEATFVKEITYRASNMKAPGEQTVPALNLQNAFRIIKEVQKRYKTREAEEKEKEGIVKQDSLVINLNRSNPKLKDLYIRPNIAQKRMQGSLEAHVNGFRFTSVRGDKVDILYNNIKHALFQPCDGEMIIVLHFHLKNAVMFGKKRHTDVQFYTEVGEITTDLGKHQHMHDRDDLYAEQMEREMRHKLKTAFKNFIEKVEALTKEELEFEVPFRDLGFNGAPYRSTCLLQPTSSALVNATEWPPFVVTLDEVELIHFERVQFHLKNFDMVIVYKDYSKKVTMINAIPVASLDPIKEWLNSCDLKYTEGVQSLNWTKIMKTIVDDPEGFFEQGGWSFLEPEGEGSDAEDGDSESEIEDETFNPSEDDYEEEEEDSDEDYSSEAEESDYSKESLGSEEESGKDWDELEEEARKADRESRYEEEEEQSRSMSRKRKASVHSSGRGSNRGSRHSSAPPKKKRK

binding: binds
Substance: FACT (facilitates chromatin transcription) complex, heterodimer of SUPT16 and SSRP1 (from UniProt Q920B9 1-1047; Q08943 1-708)

Source: paper PMC7886895
